# Experimental data from article PMC12548414.
# In all, about 1,600 compounds went through this assay and about 20 (1%) showed an effect of 50% or more. The list shows a part of the results.
# Test system: T1, E. coli pLC1021 (luc-trpAt trans-translation reporter)
# T1 construct: pLC1021 luc-trpAt reporter strain
# Parameters: species or system Escherichia coli pLC1021; luc-trpAt non-stop luciferase reporter; luminescence rises when trans-translation is inhibited; normalized to KKL-35 and DMSO
# Conditions: reporter signal, KKL-35 = 100%; rise means trans-translation inhibition; 2 h, 20 µM
# Method in brief: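 Cells carrying the non-stop luc-trpAt reporter were exposed to 20 µM compound for 2 h at room temperature, then Bright-Glo was added and luminescence read at 560 nm after 10 min. Signals were normalised per plate to DMSO and 20 µM KKL-35 wells. Hits: activity one SD above the median; ≥2 biological repeats averaged.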
row,Compound,% activation [%]
1,CC(=NNC1=NC(=O)C(Cc2ccc(F)cc2)S1)c1ccc(Cl)cc1 (stereo not shown) [KKL-0416],10
2,O=C(O)c1ccc(NC(=S)NC(=O)c2ccc(-c3ccccc3)cc2)cc1 [KKL-1292],0
3,CC(=O)N1CCc2cc3nc(C)cc(C)c3cc21 [KKL-1780],0
4,Oc1cccc2ccc(/C=C/c3c(F)cccc3Cl)nc12 [KKL-1108],26
5,Nc1ccc(C(O)CNCCc2ccccc2)cc1O (stereo not shown) [KKL-1885],3
6,COC(=O)[C@@H]1Cc2c([nH]c3ccccc23)[C@H]2C[C@H](NCc3cccnc3)C[C@@H](c3ccc(OC(F)(F)F)cc3)N21 [KKL-1610],0
7,CCOC(=O)CSc1nc2c(c(-c3ccc(C)o3)c1C#N)CCCC2 [KKL-1085],0
8,Cc1ccccc1OC(=O)c1sc2ccccc2c1Cl [KKL-0721],0
9,CC1CC(C)CN(C(=O)COC(=O)c2cc3ccccc3cc2O)C1 (stereo not shown) [KKL-0842],0
10,CCC(=Nc1ccccc1O)C1=C(O)CC(c2ccccc2)CC1=O (stereo not shown) [KKL-1076],1
11,FC(F)(F)c1nnc2ccc(Sc3nnc(-c4ccco4)o3)nn12 [KKL-1754],1
12,O=C(Nc1ccc(Oc2ccccc2)cc1)Nc1cccc([N+](=O)[O-])c1 [KKL-1338],0
13,CSc1ccc(C(=O)C2CCCN(C(=O)c3ccc4c(c3)no[n+]4[O-])C2)cc1 (stereo not shown) [KKL-0493],3
14,CCc1ccccc1OCCCON1C(=N)N=C(N)NC1(C)C [KKL-1700],3
15,Cc1cccc(-c2cccc(NC(=O)C3CCCN(Cc4cccn4-c4ncccn4)C3)c2)c1 (stereo not shown) [KKL-1147],0
16,CCOC(=O)c1ccc(NC(=O)/C=C/c2ccc([N+](=O)[O-])s2)cc1 [KKL-0727],0
17,CC(C)c1ccc(NC2CCCN(C(=O)c3ccc4c(c3)no[n+]4[O-])C2)cc1 (stereo not shown) [KKL-1166],1
18,CCc1cc2c(=O)c(-c3ccc(OC)cc3)coc2cc1OCC(=O)OC [KKL-0909],0
19,O=C(OCC(=O)c1c[nH]c2ccccc12)c1ccc([N+](=O)[O-])s1 [KKL-0815],0
20,O=C(CNC(=O)/C(=C\c1ccccc1)NC(=O)c1ccc(Br)cc1)OCc1ccccc1 [KKL-0977],0
21,CCCN1C(=O)c2cccc3cc([N+](=O)[O-])cc(c23)C1=O [KKL-1354],0
22,O=C(Cc1ccc(F)cc1)Nc1nc(-c2ccccn2)cs1 [KKL-1688],13
23,O=C(c1cc2ccccc2o1)N1CCN(Cc2ccc3c(c2)OCO3)CC1 [KKL-1696],0
24,Cc1ccc(C)c(SCC(=O)OC/C(O)=C(/C#N)c2nc3ccccc3[nH]2)c1 [KKL-0827],4
25,Cc1ccc(NC2CCCN(C(=O)c3ccc4c(c3)no[n+]4[O-])C2)cc1C (stereo not shown) [KKL-0482],3
26,Cc1ccc(CN(CCCn2ccnc2)Cc2oc3ccccc3c2C)s1 [KKL-0543],3

# 12 of the compounds above, with bars between the fields:
row | Compound | % activation [%]
9 | CC1CC(C)CN(C(=O)COC(=O)c2cc3ccccc3cc2O)C1 (stereo not shown) [KKL-0842] | 0
10 | CCC(=Nc1ccccc1O)C1=C(O)CC(c2ccccc2)CC1=O (stereo not shown) [KKL-1076] | 1
11 | FC(F)(F)c1nnc2ccc(Sc3nnc(-c4ccco4)o3)nn12 [KKL-1754] | 1
12 | O=C(Nc1ccc(Oc2ccccc2)cc1)Nc1cccc([N+](=O)[O-])c1 [KKL-1338] | 0
13 | CSc1ccc(C(=O)C2CCCN(C(=O)c3ccc4c(c3)no[n+]4[O-])C2)cc1 (stereo not shown) [KKL-0493] | 3
14 | CCc1ccccc1OCCCON1C(=N)N=C(N)NC1(C)C [KKL-1700] | 3
15 | Cc1cccc(-c2cccc(NC(=O)C3CCCN(Cc4cccn4-c4ncccn4)C3)c2)c1 (stereo not shown) [KKL-1147] | 0
16 | CCOC(=O)c1ccc(NC(=O)/C=C/c2ccc([N+](=O)[O-])s2)cc1 [KKL-0727] | 0
17 | CC(C)c1ccc(NC2CCCN(C(=O)c3ccc4c(c3)no[n+]4[O-])C2)cc1 (stereo not shown) [KKL-1166] | 1
18 | CCc1cc2c(=O)c(-c3ccc(OC)cc3)coc2cc1OCC(=O)OC [KKL-0909] | 0
19 | O=C(OCC(=O)c1c[nH]c2ccccc12)c1ccc([N+](=O)[O-])s1 [KKL-0815] | 0
20 | O=C(CNC(=O)/C(=C\c1ccccc1)NC(=O)c1ccc(Br)cc1)OCc1ccccc1 [KKL-0977] | 0

# (listing goes on)

row,Compound,% activation [%]
1,CC(C)=CCCC1(C)C=Cc2c(c(C)cc3c2[nH]c2ccccc23)O1 (stereo not shown) [KKL-1591],0
2,OC1(c2ccccc2)CCN(Cc2ccc(N3CCCC3)c(F)c2)C1 (stereo not shown) [KKL-0333],0
3,Fc1ccc(CN(CCCn2ccnc2)Cc2ccccc2F)cc1F [KKL-0708],7
4,O=C(C=Cc1cccs1)N1CCN(Cc2ccc(Br)s2)CC1 [KKL-1861],0
5,Cc1cc(C)n(-c2nc(SCCN(C)C)c3c4c(sc3n2)CCCC4)n1 [KKL-1018],7
6,NS(=O)(=O)c1ccc(Nc2cnc3ccccc3n2)cc1 [KKL-1678],4
7,COC(=O)c1ccc(N2C(=O)CC(N(CCc3ccccc3)C(S)=Nc3ccccc3)C2=O)cc1 (stereo not shown) [KKL-1398],3
8,CC(C)(C)c1ccc(C(=O)NC(=S)Nc2ccc(F)cc2)cc1Br [KKL-1435],13
9,O=C(C=Cc1cccs1)N1CCN(Cc2ccc3c(c2)OCO3)CC1 [KKL-1759],0
10,Cc1c(OC(=O)c2cccc([N+](=O)[O-])c2)ccc2c1CCCC2 [KKL-1561],1
11,O=C(CCC1CCCCC1)Nc1cccc(-c2nnc(-c3ccco3)o2)c1 [KKL-1701],3
12,O=C(Nc1nc(-c2ccccn2)cs1)C12CC3CC(CC(O)(C3)C1)C2 [KKL-0384],0
13,CC(C)(C)C(=O)CC1(O)Oc2ccccc2N=C1C=C(O)C(C)(C)C (stereo not shown) [KKL-1740],6
14,C=CCc1cc(Cl)ccc1OCCCCn1ccnc1 [KKL-1370],0
15,CC(C)n1ncc2c(C(=O)NCC(c3cccs3)N3CCOCC3)cc(-c3ccccc3)nc21 (stereo not shown) [KKL-1767],0
16,CCCS(=O)(=O)c1nnnn1-c1cccc(OC)c1 [KKL-0294],0
17,CCOc1ccc(C(=O)Nc2ccc(N3CCN(C(=O)c4cccs4)CC3)c(Cl)c2)cc1Br [KKL-1291],1
18,CCCOC(=O)CSc1nnc(-c2cc(OC)c(OC)c(OC)c2)o1 [KKL-1095],0
19,Cc1ccc2c(c1)C(O)CC1(CCN(CC(O)c3ccc4c(c3)CCCC4)CC1)O2 (stereo not shown) [KKL-0461],0
20,Cc1ccc(-c2cc(C(=O)N3CCCC(N4CCN(c5ccccc5C)CC4)C3)[nH]n2)s1 (stereo not shown) [KKL-0485],0
21,COC(=O)COc1ccc2c(-c3ccc(OC)cc3)cc(=O)oc2c1 [KKL-0407],0
22,COc1cccc(CNCc2cn(-c3ccc(C)cc3)nc2-c2ccc(F)cc2)c1OC [KKL-0501],0
23,CC(=O)N[C@H]1C(O[C@@H]2OC(CC(O)[C@H]3O[C@@H](n4ccc(=O)[nH]c4=O)[C@H](O)[C@@H]3O)[C@H](O)[C@H](O)[C@H]2NC(=O)/C=C/CCCCCCCCCCC(C)C)O[C@H](CO)[C@@H](O)[C@@H]1O (stereo partly shown) [KKL-1603],0
24,Cc1nc2ccccc2n1CC(O)COc1ccc(C2C=CCC2)cc1 (stereo not shown) [KKL-0747],0
25,O=C(CSc1ccc(Br)cc1)Nc1ccccc1F [KKL-1459],0
26,CCCOc1ccc(C2Oc3ccc(Br)cc3C=C2[N+](=O)[O-])cc1OC (stereo not shown) [KKL-1434],2
